From PubChem BioAssay AID1347423 (Functional Genomics Laboratory (NCATS/FGL), 2020) come the findings set out here.

Hit rate of the full screen: of about 52,000 sequences, about 210 (0.4%) were called active.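 How the source made its calls: active means gene whose silencing raises cell survival under the drug, median off-target-corrected z-score across its silencing RNAs 2 or more; inactive means the rest.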 This is one part of the list.

A short description of this test: Resistance to Poly (ADP-Ribose) Polymerase inhibitor: Gene Identification via Genome-wide siRNA Screen. The conditions noted are these: mouse BRCA2 R2336H ES cells, olaparib, CellTiter-Glo viability; active compounds read high. In short, it runs like this:
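Mouse BRCA2 R2336H ES cells were reverse-transfected with siRNA (20 nM final), treated at 48 h with 500 nM olaparib, and read by CellTiter-Glo after 72 h. Scores: MAD-based z per siRNA, median per gene, seed off-target correction.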
Background: In ATP-based viability assays light output follows the ATP content of the culture.
In the case of GGAACAAAAGUGUGAAGAATT against Ccnd2, the z-score is inactive: -0.745.
In the case of “GGCUUAUGUCACCAACUUGTT against 1300014I06Rik”, the z-score was inactive: -0.323.
Take CCAUCUAACCCUAUAUUAGTT against G6pdx: the z-score is inactive: 0.154.
With CGUGGCUAGGUUAUUUAAATT against Htr1d the figure was inactive: 0.82; with GGGCGAAAAGGUGAAACAATT against Flot2, inactive: -1.08.
On to GUGAUGUGGCCAUGUCAAUTT against Olfr641, for which the z-score was inactive: 1.04.
Consider GCAGAAGUUUUGAGCCACUTT against Ralgps2, for which the z-score is inactive: -0.107.
Take “GGUGGUGUGUGAUGAGAAUTT against 4932702K14Rik”: the z-score is inactive: -0.314.
Take GGAAGAAAUGCAGGUGUGGTT against Gab3: the z-score was inactive: -0.49.
Take GCUCAUCGAGCCUGUACACTT against Crsp7: the z-score was inactive: -0.822.
As for GGAAGAAUAAAGUGCUUUGTT against Chga, the z-score is inactive: 0.735.
Regarding GGGUGUACAGGAUUUCCACTT against Nfyc, the z-score was inactive: 0.91.
For the sequence GGAGUUAUGGAUGACGUGGTT against Stard4, the z-score is inactive: 0.945.
Take GCCUGACGAUAAGAAAGAATT against Map4k4: the z-score is inactive: -0.724.
Consider “GGACAAGAUGAACUUUUCCTT against 2510048O06Rik”, for which the z-score was inactive: -3.35.
Regarding GGAGAUCCACAUCAACGAATT against Slc9a1, the z-score is inactive: 0.683.
As for CCCAAUCCUGUCAAUAGUCTT against Gfpt1, the figure is inactive: 0.144.
In the case of GGACAGAAACUCCUUAUCATT against Zec, the z-score is inactive: -0.192.
For “GGUACACAGCCAAAGACUGTT against A030005L19Rik”, the z-score is inactive: -0.946.
As for “GGGUUUUAAGUUUACUGCUTT against 4930579G22Rik”, the z-score is inactive: 1.95.
Turning to “GGUUAAAAAGAUCCCUUGUTT against A230056M16”, the z-score is inactive: 0.745.
As for “GCACUAGCUCUUCACCUCUTT against 5730455A04Rik”, the figure is inactive: -1.26.
As for “GGAAAGUCACAACACUUCCTT against 6330527O06Rik”, the figure is inactive: -0.761; as for GGUUUUGGUCACUCUUUGGTT against Olfr1240, inactive: 1.16.
As for GCAGAUCAUUCCCGUGUUGTT against P2ry14, the figure is inactive: 0.873; as for GGAAGGUAUCCACUGUGCATT against Nme6, inactive: -0.325.
For the sequence GGACCUGUUUGAUCCCAUCTT against Ckm, the z-score is inactive: 0.0814.
As for GGAGGAAGCUGAACUCUGGTT against Bat8, the z-score is inactive: -0.592.
Regarding “CGAAACCAACAGUUAGAAGTT against 1110014P06Rik”, the z-score was inactive: 0.0196.
Take GGGCCUAUCAAGAUUUUCCTT against Stk11ip: the z-score was inactive: 1.6.
For CCCUAAUUCUUAGGCCUUUTT against Bloc1s3, the z-score is inactive: 0.0832.
As for “GCCUAUGGAAUGGACAUACTT against 9130012B15Rik”, the z-score was inactive: 2.06.
Consider GGCUUAUGUUUGCUUUGUUTT against Piwil1, for which the z-score is inactive: -0.416.
Regarding GGUUCUGGAAAGUUCUCUGTT against Sorcs2, the z-score is inactive: -1.4.
With GGUUUUACGGAAACGGGAATT against Nid2, the z-score was inactive: -1.12.
Turning to CCAAGUUCGUGACAAACAUTT against Trpv1, the z-score was inactive: 1.09.
In the case of GCUCAACUGCCUGAGAUGCTT against Pink1, the z-score was inactive: 0.645.
With GGUGACUCACUCGUGUUAATT against Scn9a the figure was inactive: 0.232.
Regarding GGACCUUUAUAAUGACAGGTT against Uqcrb, the z-score was inactive: -0.887.
With GGAAUGAACUCUUUGAAAATT against Opa1 the figure was inactive: 1.6.
In the case of GCCUGAUGUACAUCACCACTT against Olfr615, the z-score is inactive: 0.121.
With GUUCCACAAAGACCAUCAGTT against Olfr134 the figure was inactive: 0.53; with GGUCUGCUGUUGAUCGUUCTT against Sct, inactive: 1.09; with GCAACGAGAACUCUUUUUATT against Mint, inactive: 0.682.
On to CCGAGCAAGGCAUAGAAAATT against LOC541463, for which the z-score is inactive: -0.67.
With GCCAUUGUUGCUUACUCGGTT against Hspa14 the figure was inactive: 0.545; with “GCCAAAUUGCACCAUGUAUTT against 9530002K18Rik”, inactive: -0.601; with GCCACGAGUUCUUUGAAGCTT against Ubxd1, inactive: 0.256.
GGGAGGCAAGCAUAAGACUTT against Cycs: the z-score was inactive: -0.19.
As for CCCUUUAGCUUCCUAAUGUTT against Rhag, the z-score was inactive: -0.47.
As for GGAUCAUGGAUAUACCACCTT against Smarcb1, the z-score is inactive: -1.33.
As for GGUUUUAUCAGAUCCCAAGTT against Dclre1c, the figure is inactive: 0.22; as for GCAAUAAUUUCUCACCUAGTT against Tcfe2a, inactive: -1.29.
As to GGACCUGAAAAUCAAAUGATT against Arpc1b, the z-score was inactive: 0.0829.
“GGAUUUGUUUUCAGAUGUGTT against 2810439M05Rik”: the z-score is inactive: -0.798.
As for GCUAUCGGUGUCCUGACCATT against Pfkp, the figure is inactive: -0.134; as for CCCUUUUGAAAUUCUGACCTT against Zfp46, inactive: 0.54.
CCGCUUGUAUUCGACUUAUTT against LOC433719: the z-score is inactive: -2.51.
As for GGUUAUAGCAAAGCUGAAATT against BC005752, the z-score is inactive: -3.17.
Consider GGAGACGUGAUUGAAAGGGTT against Fabp6, for which the z-score is inactive: -1.36.
In the case of GGAGGACAUCAAUAAAACATT against Slc2a10, the z-score is inactive: 0.111.
As for GGCGGCCUUAGUAGAUAUCTT against Acsl4, the figure is inactive: -0.686.
As for GGCCAAUCAAGAUAGCCACTT against Dnajc1, the figure is inactive: 1.32.
In the case of GCCUUGUACCCUGUAGUGATT against Lalba, the z-score was inactive: 0.475.
As for GGACGACGACUUUGAGAGGTT against Map2k2, the figure is inactive: -0.963.
As for “GGAGAAAAAAAACUCCAUUTT against 1110008L20Rik”, the z-score was inactive: 0.502.
As for “CCCGCUCCUGUUUAGAUGUTT against D16Bwg1547e”, the z-score was inactive: -0.317.
GCAAGUCACUUUGGUACCATT against Anxa1: the z-score is inactive: -0.153.
In the case of GGUGAAAAACUAGCUUAAATT against Zfp263, the z-score was inactive: 1.09.
With ACCCUUUUGUUUACACUCUTT against Olfr763 the figure was inactive: -0.649.
With GAGAUCAGCUUCAAUGCUUTT against Olfr564 the figure was inactive: 0.892.
As to CCACACACUGAUCAACGUGTT against Unc93b, the z-score is inactive: -1.31.
In the case of GGAGGAGUGGAUGUGAUUATT against Dao1, the z-score was inactive: 1.26.
For GGCUAAAACAAGUGAAUGGTT against Gli3, the z-score was inactive: 1.06.
GGAUCUCUGGGUCUGAAAATT against AU022870: the z-score was inactive: 0.918.
On to GGAGCAGGAACAGUAUUUCTT against B3gnt6, for which the z-score was inactive: 0.717.
In the case of GGCAAUAAAUGCUGAGUUATT against Fbxo15, the z-score is inactive: 1.11.
“CCUCCUAUUUGGACAUUGCTT against 6330505F04Rik”: the z-score was inactive: -0.816.
Regarding CCACUAAGUCCCAUGCUAGTT against Glycam1, the z-score is inactive: -1.22.
Regarding GGCAGGCUAACGAAGAAUATT against Tusc3, the z-score was inactive: -1.58.
Consider GGUUAUAGAUGUAAAGUCUTT against C80587, for which the z-score was inactive: -0.388.
With GGAGCUGUAUCGCACGAAATT against Ehd2, the z-score was inactive: 0.217.
Consider GGGUGAUGGACAUAAAUGATT against Pcdhb17, for which the z-score is inactive: -0.281.
With GGUAUGCAGUGAAGAGGAUTT against Paqr9 the figure was inactive: 0.0313.
With GCUUCAUUUAGCUUUAACUTT against Tpp2 the figure was inactive: -0.521; with CGUUCAUAUAGAGAACUGUTT against Birc1a, inactive: 1.42; with GGGCUUUUAAUAGAGGUAATT against Rras2, inactive: -1.1.
With GGAAGAGAAAACAACAGUUTT against Phactr4 the figure was inactive: -1.83.
As to “GCUACACAUGGGAACUAACTT against 4631405J19Rik”, the z-score was inactive: -0.51.
Turning to CCUUGUAUCCUUAAUCCUCTT against Ppt1, the z-score was inactive: 0.555.
For GGUCUUUGUUAAGAAUCCUTT against Myo1f, the z-score is inactive: 1.03.
As for UACAACCCGAAUGAAUCGUTT against Olfr129, the z-score is inactive: -1.5.
Regarding “GCCAUGCUCACUGAACUUCTT against 1600031M04Rik”, the z-score is inactive: 1.23.
For the sequence CCACUAUGCUUCUUGGAAUTT against Serpini2, the z-score is inactive: -0.623.
As for GGUCAUGGCUGGAUUUCUUTT against Olfr1462, the figure is inactive: -1.5; as for CCUCCUUUGGACAACGGGUTT against Cyp7a1, inactive: 0.108.
As to “CGAUGUUUUCAUGAACGACTT against 0610012D17Rik”, the z-score is inactive: 0.421.
As for CCUUCCUGUUGUCAUGAGATT against Tssc1, the z-score is inactive: 0.354.
For GCCCUCGGAUAGAAUGGAUTT against Gm631, the z-score is inactive: 0.242.
For the sequence “GGAACUCACCUACCAAGAATT against 5530600A18Rik”, the z-score is inactive: -2.8.
In the case of “GCACAAGGUGUUUCAUUAATT against 5430416O09Rik”, the z-score is inactive: -0.849.
GGCAGAGCUUGGAGUAUCUTT against Gtpbp4: the z-score is inactive: -2.37.
With GGAUUAUCUUACAAUGUGGTT against Adam10, the z-score was inactive: 0.459.
Regarding GGAGAUUCUAGAUCAUCUATT against Phldb2, the z-score is inactive: 1.72.
